Some entries share one result that the patent states for a list of compounds.
Molecular target: TRPM8 (Homo sapiens, UniProt Q7Z2W7)
Experiment: HTS cell-based Ca2+ mobilization assay (FLIPR TETRA) in HEK293/hTRPM8 cells, agonist Cooling Agent 10
Parameters: expressed in transfected cells
Details: HEK293/hTRPM8, Cooling Agent 10 at EC80
Excerpt: A functional cell-based assay for the identification of TRPM8 receptor antagonists, optimised to allow high throughput screening at FLIPR^TETRA, was developed in HEK293 cells by stable pure clone selection and functional characterization with a fluorescent calcium sensitive dye.
TRPM8 was cloned into the multiple cloning site of pcDNA3 mammalian expression vector; the obtained construct pcDNA3/hTRPM8 was fully sequence verified and used for the transfection of HEK293 cell line. HEK293 cells stably transfected with TRPM8 gene were maintained in Minimum essential medium. The cells were transfected with the pcDNA3/hTRPM8 vector by electroporation and then selected with medium containing 0.8 mg/ml G418 for 10-15 days.
The following commercial compounds were used as ligands:
Activator: Cooling Agent 10 (Takasago CAS N. 87061-04-9)
Blocker: Capsazepine (SIGMA cat #D_5879)
The experimental activities were performed using FLIPR^TETRA instruments.
HEK293 cells stably transfected with TRPM8 gene were maintained in Minimum essential medium.
The TRPM8 cell line was analysed for the response to a library of compounds using a Ca^2+ mobilization-dependent fluorescence signal in 384 wells microtiter plate format. […]
1. […] No mixing was performed in the assay wells and the signal of the emitted fluorescence was recorded for 300 seconds. […] The signal of the emitted fluorescence was recorded for 180 seconds.

Protein sequences, listed by entry. Tags and fused reporters are not part of them.
UniProt Q7Z2W7, whole entry: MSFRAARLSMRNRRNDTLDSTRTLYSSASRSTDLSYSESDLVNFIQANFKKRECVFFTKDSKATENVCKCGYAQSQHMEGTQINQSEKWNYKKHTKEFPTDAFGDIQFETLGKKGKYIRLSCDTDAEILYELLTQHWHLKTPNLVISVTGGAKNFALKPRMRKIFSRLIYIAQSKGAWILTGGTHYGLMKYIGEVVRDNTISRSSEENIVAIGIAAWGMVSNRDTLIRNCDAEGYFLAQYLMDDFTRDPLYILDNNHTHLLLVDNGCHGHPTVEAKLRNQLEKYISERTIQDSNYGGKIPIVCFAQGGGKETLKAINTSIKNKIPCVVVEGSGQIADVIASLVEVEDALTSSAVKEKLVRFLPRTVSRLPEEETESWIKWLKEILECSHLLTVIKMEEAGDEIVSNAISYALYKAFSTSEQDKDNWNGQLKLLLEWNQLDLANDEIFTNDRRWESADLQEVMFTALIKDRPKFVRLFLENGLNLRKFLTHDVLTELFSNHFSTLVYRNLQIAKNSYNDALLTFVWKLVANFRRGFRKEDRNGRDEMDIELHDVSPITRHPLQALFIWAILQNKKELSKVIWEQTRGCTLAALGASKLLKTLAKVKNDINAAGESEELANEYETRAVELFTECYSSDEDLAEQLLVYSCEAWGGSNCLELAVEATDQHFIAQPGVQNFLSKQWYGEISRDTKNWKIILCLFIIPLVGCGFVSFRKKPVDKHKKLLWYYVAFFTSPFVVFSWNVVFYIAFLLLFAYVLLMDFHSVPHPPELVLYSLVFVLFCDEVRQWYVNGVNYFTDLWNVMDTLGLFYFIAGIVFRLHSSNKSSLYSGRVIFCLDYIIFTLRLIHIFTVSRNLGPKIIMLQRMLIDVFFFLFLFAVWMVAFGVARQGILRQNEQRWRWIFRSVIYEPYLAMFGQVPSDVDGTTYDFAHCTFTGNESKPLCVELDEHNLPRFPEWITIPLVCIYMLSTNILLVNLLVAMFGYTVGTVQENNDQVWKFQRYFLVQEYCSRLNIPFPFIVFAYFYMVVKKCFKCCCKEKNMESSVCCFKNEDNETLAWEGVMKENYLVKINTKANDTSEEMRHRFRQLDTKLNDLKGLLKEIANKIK

Question: With `CCOC(=O)c1sc(-c2ccc(Cl)cc2)nc1OC(=O)NCc1ccccc1` [Compound 40, ethyl 4-[(benzylcarbamoyl)oxy]-2-(4-chlorophenyl)-1,3-thiazole-5-carboxylate] as the compound, how does the IC50 read?
Answer: Its IC50 is < 30 µM.
